This experiment addresses GST-DmPdcd4 (Drosophila melanogaster Pdcd4 GST fusion protein) (Drosophila melanogaster) (UniProt Q9VY91). The experiment is described as follows: pull-down; GST proteins immobilised on glutathione sepharose, incubated with extract from Drosophila Schneider S2 cells; western blotting with antibodies against Drosophila PABP; also in the absence or presence of 0.5 μg/ml RNase A; only the target purified. A general note: Immunoblotting shows a protein as a band on a membrane.

Amino acid sequences for entries named in this document (tags omitted). A change or cut given only in a name is not applied to a line headed by its entry.
UniProt Q9VY91: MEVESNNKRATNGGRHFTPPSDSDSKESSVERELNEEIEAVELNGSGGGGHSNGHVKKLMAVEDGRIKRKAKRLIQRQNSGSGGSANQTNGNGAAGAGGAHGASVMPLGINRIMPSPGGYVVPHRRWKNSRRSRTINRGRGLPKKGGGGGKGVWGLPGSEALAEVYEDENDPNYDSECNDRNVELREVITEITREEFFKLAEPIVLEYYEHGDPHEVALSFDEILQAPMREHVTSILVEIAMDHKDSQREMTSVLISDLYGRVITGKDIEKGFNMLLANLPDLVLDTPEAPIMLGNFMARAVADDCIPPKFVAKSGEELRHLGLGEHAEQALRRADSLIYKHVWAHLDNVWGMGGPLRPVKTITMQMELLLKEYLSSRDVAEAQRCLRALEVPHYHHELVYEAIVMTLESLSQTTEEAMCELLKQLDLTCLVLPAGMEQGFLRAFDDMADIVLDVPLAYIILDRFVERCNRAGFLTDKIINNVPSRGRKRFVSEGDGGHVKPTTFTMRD
UniProt P21187: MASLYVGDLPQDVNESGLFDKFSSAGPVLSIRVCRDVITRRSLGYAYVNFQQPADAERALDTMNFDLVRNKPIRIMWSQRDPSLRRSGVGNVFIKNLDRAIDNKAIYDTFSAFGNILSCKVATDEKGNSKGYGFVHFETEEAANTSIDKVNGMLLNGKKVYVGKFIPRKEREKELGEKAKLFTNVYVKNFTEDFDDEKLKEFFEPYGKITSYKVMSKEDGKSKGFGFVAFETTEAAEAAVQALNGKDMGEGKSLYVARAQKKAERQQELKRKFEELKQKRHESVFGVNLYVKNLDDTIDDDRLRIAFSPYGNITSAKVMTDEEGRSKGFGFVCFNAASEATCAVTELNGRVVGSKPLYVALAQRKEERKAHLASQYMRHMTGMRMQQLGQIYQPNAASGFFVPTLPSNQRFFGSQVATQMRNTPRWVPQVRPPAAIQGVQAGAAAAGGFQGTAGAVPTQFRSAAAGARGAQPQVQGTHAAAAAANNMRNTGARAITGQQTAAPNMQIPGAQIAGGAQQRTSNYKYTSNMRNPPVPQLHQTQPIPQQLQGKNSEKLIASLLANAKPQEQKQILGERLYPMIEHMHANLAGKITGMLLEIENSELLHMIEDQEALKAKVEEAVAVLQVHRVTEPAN

Results are given in words; binding and its absence hold for the method and conditions named. In cells and extracts the contact can be indirect. Binding can be weak; no strength is given.

For “Drosophila PABP (endogenous, Schneider S2 cell extract) (from UniProt P21187 1-634)”, the binding entry was “binds”.

The record behind these values is publication PMC4176178.
